Laboratory results from PubChem BioAssay AID264 (DTP/NCI, 2004).
The list shows only some results of the screen, not a fair sample: it is rich in T/C values a quarter to a half above the control, in often repeated tests (any T/C) and in doses without a T/C. Other doses and runs of a compound stand elsewhere. T/C gives the treated animals as a percentage of the vehicle group. Schedule codes are those of the source, taken here to give the interval after Q, in days (D) or hours (H), and the number of doses after X. Some T/C values are followed by the survivors on the day toxicity was checked, most often the fifth; without a count, all were alive then. Some entries give survivors of the animals treated and no T/C: the source files T/C as zero there, which appears to mark a toxic dose or a test without result, not a measured value. Counts of survivors are from the toxicity check (mostly the fifth day) where no day follows; animals may have died later. Some entries hold several experiments; their values stand side by side, smallest first.

System: nude mice, LX-1 lung xenograft intrarenal, tumor weight T/C
Assay: NCI In Vivo Anticancer Drug Screen. Data for tumor model Human Lung LX-1 Xenograft (intrarenal inoculation) in NU/NU Swiss (nude) mice
Settings: T/C endpoint: mean tumor weight change, higher T/C = larger tumour; for T/C: evaluated on day 11
In short: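 Activity was scored by measuring tumors in treated animals and in vehicle controls, then reporting the treated result as a fraction of the control result.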

[1] = dose: 200.0 mg/kg/injection, schedule: Q01DX010 (sc), vehicle: saline with Tween-80
[2] = dose: 400.0 mg/kg/injection, schedule: Q01DX010 (sc), vehicle: saline with Tween-80
[3] = dose: 2400.0 mg/kg/injection, schedule: Q04DX003 (sc), vehicle: saline with Tween-80
[4] = dose: 2400.0 mg/kg/injection, schedule: Q04DX003 (sc), vehicle: suspension in saline
[5] = dose: 100.0 mg/kg/injection, schedule: Q04DX003 (sc), vehicle: suspension in saline

Cc1ncc([N+](=O)[O-])n1CCSC(N)=O
survivor count (dose: 100.0 mg/kg/injection, schedule: Q01DX010 (sc), vehicle: saline with Tween-80): 1 of 3 on day 11
survivor count [1]: 0 of 3 on day 11
survivor count [2]: 0 of 3 on day 11

COC1(OC)C2C=CC1CC2
survivor count [3]: 0 of 6 on day 11

O=c1[nH]c(=O)n(C2CC(O)C(CO)O2)cc1Br (stereo unspecified)
survivor count (dose: 1600.0 mg/kg/injection, schedule: Q01DX010 (sc), vehicle: Klucel (hydroxypropylcellulose) (HPC)): 0 of 3 on day 11

NC(=O)c1ccc[n+](Cc2c(Cl)cccc2Cl)c1
survivor count (dose: 400.0 mg/kg/injection, schedule: Q04DX003 (sc), vehicle: saline): 0 of 6 on day 11

N#CC(C#N)=C/C=C/c1cccc([N+](=O)[O-])c1
T/C (dose: 6.25 mg/kg/injection, schedule: Q01DX010 (sc), vehicle: Klucel (hydroxypropylcellulose) (HPC)): 133 % of control
T/C (dose: 12.5 mg/kg/injection, schedule: Q01DX010 (sc), vehicle: Klucel (hydroxypropylcellulose) (HPC)): 148 % of control
T/C (dose: 200.0 mg/kg/injection, schedule: Q01DX010 (sc), vehicle: Klucel (hydroxypropylcellulose) (HPC)): 143 % of control [2 of 3 alive on day 11]

Cc1ccc(N)c(N)c1
survivor count (dose: 1600.0 mg/kg/injection, schedule: Q04DX003 (sc), vehicle: saline with Tween-80): 0 of 6 on day 11

CCCCCCCCCCCCCC#CC(=O)O
survivor count (dose: 600.0 mg/kg/injection, schedule: Q04DX003 (sc), vehicle: saline with Tween-80): 3 of 6 on day 11

CC(=O)NC(C=O)OCC=O (stereo unspecified)
survivor count (dose: 800.0 mg/kg/injection, schedule: Q04DX003 (sc), vehicle: water): 1 of 6 on day 11

CNC(=O)OCc1c(COC(=O)NC)c(C)n(-c2ccc(OC)cc2)c1C
survivor count (dose: 800.0 mg/kg/injection, schedule: Q01DX010 (sc), vehicle: Klucel (hydroxypropylcellulose) (HPC)): 0 of 6 on day 11

COC1/C=C/C=C(/C)Cc2cc(O)c(Cl)c(c2)N(C)C(=O)CC(OC(=O)C(C)C)C2(C)OC2C(C)C2CC1(O)NC(=O)O2 (stereo unspecified)
survivor count (dose: 8.0 mg/kg/injection, schedule: Q04DX003 (sc), vehicle: saline + alcohol): 1 of 6 on day 11

CCOC(=O)C1=C(C#N)C2(CCC(OCc3ccccc3)CC2)C(=O)O1 (stereo unspecified)
T/C [4]: 131 % of control

Cc1[nH]c(=O)[nH]c(=O)c1N(CCF)CCCl
T/C (dose: 10.0 mg/kg/injection, schedule: Q01DX010 (sc), vehicle: Klucel (hydroxypropylcellulose) (HPC)): 147 % of control
survivor count (dose: 80.0 mg/kg/injection, schedule: Q01DX010 (sc), vehicle: Klucel (hydroxypropylcellulose) (HPC)): 0 of 3 on day 11, 0 of 6 on day 11, 1 of 6 on day 11

C=C1C(=O)OCC1C(=O)O (stereo unspecified)
survivor count (dose: 400.0 mg/kg/injection, schedule: Q04DX003 (sc), vehicle: suspension in saline): 1 of 6 on day 11

CN(C)CCCNc1c2ccccc2nc2cccc([N+](=O)[O-])c12
survivor count (dose: 3.0 mg/kg/injection, schedule: Q04DX003 (sc), vehicle: saline): 2 of 6 on day 11

CC1=NN(c2cccc(S(=O)(=O)O)c2)C(=O)C1N=Nc1cc(Cl)cc(S(=O)(=O)O)c1O.CC1=NN(c2cccc(S(=O)(=O)O)c2)C(=O)C1N=Nc1cc(Cl)cc(S(=O)(=O)O)c1O.[Cr] (stereo unspecified)
survivor count (dose: 1200.0 mg/kg/injection, schedule: Q04DX003 (sc), vehicle: saline): 1 of 6 on day 11

Cn1/c2cc/c1=C(\c1ccc(S(=O)(=O)O)cc1)c1ccc([n-]1)/C(c1ccc(S(=O)(=O)O)cc1)=c1/cc/c([nH]1)=C(\c1ccc(S(=O)(=O)O)cc1)c1ccc([n-]1)/C=2c1ccc(S(=O)(=O)O)cc1.O.O=S(=O)(O)C(F)(F)F.[Cu+2]
T/C [5]: 142 % of control

CC(C)=CCNc1ncnc2c1ncn2C1OC(CO)C(O)C1O (stereo unspecified)
T/C [5]: 125 % of control

C=CS(=O)(=O)c1ccccc1
survivor count (dose: 200.0 mg/kg/injection, schedule: Q01DX010 (sc), vehicle: saline): 0 of 3 on day 11

ClCc1ccc2ccccc2n1
survivor count (dose: 1200.0 mg/kg/injection, schedule: Q04DX003 (sc), vehicle: saline with Tween-80): 2 of 6 on day 11

c1ccc2c(c1)nnn1c3cnccc3nc21
T/C (dose: 12.5 mg/kg/injection, schedule: Q01DX010 (sc), vehicle: saline with Tween-80): 128 % of control
T/C (dose: 25.0 mg/kg/injection, schedule: Q01DX010 (sc), vehicle: saline with Tween-80): 127 % of control

COC1CC(C)C(OC)c2cc(O)cc(c2O)NC(=O)/C(C)=C/C=C\C(C)C(OC(N)=O)/C(C)=C\C(C)C1OC (stereo unspecified)
survivor count (dose: 200.0 mg/kg/injection, schedule: Q04DX003 (sc), vehicle: saline + alcohol): 3 of 6 on day 11

O=C1CN(CN2CCOCC2)C(=O)CN1CN1CCOCC1
T/C (dose: 25.0 mg/kg/injection, schedule: Q01DX010 (sc), vehicle: suspension in saline): 140 % of control
T/C (dose: 100.0 mg/kg/injection, schedule: Q01DX010 (sc), vehicle: suspension in saline): 126 % of control

COc1cccc2c1C(=O)c1c(O)c3c(c(O)c1C2=O)C[C@@](O)(C(=O)COC(=O)c1cccnc1)C[C@@H]3OC1CC(N)C(O)C(C)O1 (stereo partly specified)
T/C (dose: 6.0 mg/kg/injection, schedule: Q04DX003 (sc), vehicle: saline): 126 % of control

CCCCC1CCCCCCc2[nH]c(/C=C3\N=C(c4ccc[nH]4)C=C3OC)cc21 (stereo unspecified)
survivor count (dose: 32.0 mg/kg/injection, schedule: Q04DX003 (sc), vehicle: saline with Tween-80): 3 of 6 on day 11

CS(=O)(=O)OCCN(CCOS(C)(=O)=O)c1ccc(C=O)cc1
T/C (dose: 6.25 mg/kg/injection, schedule: Q01DX010 (sc), vehicle: saline): 143 % of control

Nc1ncnc2c1ncn2C1C=C(CO)C(O)C1O (stereo unspecified)
survivor count (dose: 30.0 mg/kg/injection, schedule: Q04DX003 (sc), vehicle: saline): 1 of 6 on day 11

COC12C(COC(N)=O)C3=C(C(=O)C(C)=C(N)C3=O)N1CC1C2N1C (stereo unspecified)
survivor count (dose: 16.0 mg/kg/injection, schedule: Q01DX010 (sc), vehicle: saline): 0 of 3 on day 11 and 1 of 3 on day 11
survivor count (dose: 32.0 mg/kg/injection, schedule: Q01DX010 (sc), vehicle: saline): 0 of 3 on day 11

CN(C)[C@@H]1C(=O)C(C(N)=O)=C(O)[C@@]2(O)C(=O)C3=C(O)c4c(O)ccc(Cl)c4[C@@](C)(O)[C@H]3C[C@@H]12
T/C (dose: 2400.0 mg/kg/injection, schedule: Q04DX003 (sc), vehicle: saline): 135 % of control

CCOC(=O)[C@]1(Br)CC[C@@]1(Br)C(=O)OCC
T/C (dose: 100.0 mg/kg/injection, schedule: Q04DX003 (sc), vehicle: saline with Tween-80): 142 % of control
T/C (dose: 200.0 mg/kg/injection, schedule: Q04DX003 (sc), vehicle: saline with Tween-80): 125 % of control
T/C (dose: 400.0 mg/kg/injection, schedule: Q04DX003 (sc), vehicle: saline with Tween-80): 145 % of control
survivor count [3]: 2 of 6 on day 11

NC(=O)c1[nH]nc(C2OC(CO)C(O)C2O)c1O (stereo unspecified)
survivor count (dose: 5.0 mg/kg/injection, schedule: Q04DX003 (sc), vehicle: saline): 3 of 6 on day 11
survivor count (dose: 10.0 mg/kg/injection, schedule: Q04DX003 (sc), vehicle: saline): 3 of 6 on day 11
survivor count (dose: 20.0 mg/kg/injection, schedule: Q04DX003 (sc), vehicle: saline): 2 of 6 on day 11
survivor count (dose: 40.0 mg/kg/injection, schedule: Q04DX003 (sc), vehicle: saline): 1 of 6 on day 11

CC[C@]1(O)C[C@H]2CN(CCc3c([nH]c4ccccc34)[C@@](C(=O)OC)(c3cc4c(cc3OC)N(C=O)[C@H]3[C@@](O)(C(=O)OC)[C@H](OC(C)=O)[C@]5(CC)C=CCN6CC[C@]43[C@@H]65)C2)C1
survivor count (dose: 1.0 mg/kg/injection, schedule: Q01DX010 (sc), vehicle: saline): 1 of 3 on day 11

S=C=NCCc1ccccc1
survivor count [1]: 0 of 3 on day 11 and 1 of 3 on day 11

C=C(C(=O)O)C(N)C(=O)O (stereo unspecified)
T/C (dose: 300.0 mg/kg/injection, schedule: Q04DX003 (sc), vehicle: suspension in saline): 135 % of control
T/C (dose: 600.0 mg/kg/injection, schedule: Q04DX003 (sc), vehicle: suspension in saline): 134 % of control
survivor count [4]: 0 of 6 on day 11

Nc1cc2[nH]cnc2c(=O)[nH]1
survivor count (dose: 400.0 mg/kg/injection, schedule: Q01DX010 (sc), vehicle: saline): 0 of 6 on day 11

O=C1NC(c2ccccc2)N=C2Oc3ccccc3C=C12 (stereo unspecified)
survivor count [2]: 0 of 3 on day 11
